In publication PMC3510516:
No constants are given. Whether binding was seen depends on the method and setting.

Amino acid sequences for entries named in this document (tags omitted). Residues count along the entry.
UniProt P05653, residues 500-808: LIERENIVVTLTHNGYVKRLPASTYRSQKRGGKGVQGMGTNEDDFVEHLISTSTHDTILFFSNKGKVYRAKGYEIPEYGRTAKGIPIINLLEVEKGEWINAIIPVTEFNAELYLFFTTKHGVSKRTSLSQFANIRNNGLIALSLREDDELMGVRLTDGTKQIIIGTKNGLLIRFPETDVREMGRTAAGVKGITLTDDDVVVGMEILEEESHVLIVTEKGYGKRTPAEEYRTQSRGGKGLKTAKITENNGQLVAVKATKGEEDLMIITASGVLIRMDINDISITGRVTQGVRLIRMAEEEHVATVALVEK

Molecular target: Bacillus subtilis GyrA C-terminal domain (amino acids 500-808) (Bacillus subtilis) (UniProt P05653)
Assay: SEC; calibrated 16/60 Superdex 200-pg column, 50 mM Tris-HCl pH 7.5, 300 mM NaCl, 10 mM MgCl2, 2 mM beta-mercaptoethanol; last step of the purification; both purified

binding: no binding
Substance: Bacillus subtilis GyrA C-terminal domain (amino acids 500-808) (from UniProt P05653 500-808) (domain or fragment)
